In all, about 320,000 compounds went through this assay and about 2,100 (0.66%) were called active. Inconclusive results, whose numbers are uncertain, are shown with a selection of clear calls. Calls follow the shape of the dose curve; as a rule, active = well fitted inhibition curve with a large enough effect in the signal ratio, with a control signal flat (not every such curve was filed as active); inconclusive = small, poorly fitted or top-dose-only effect, or effect the other way, or a change in a side signal; inactive = flat fitted curve, though single readings scatter; the % refers to the signal ratio. Potencies beside an inconclusive call are fits to weak or partial responses and may not hold up.
Assay: qHTS Assay for Lipid Storage Modulators in Drosophila S3 Cells
Conditions: BODIPY lipid droplet fluorescence, 18-24 h, cells fed with added oleic acid; lipid storage change, negative = inhibition: at 46.1 µM (top of the series) unless noted
Method in brief: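 Laser-scanning cytometry quantifies lipid droplet accumulation (500–530 nm total intensity; droplet/cell object ratio) in oleic acid-fed (400 uM added) Drosophila S3 cells treated with a concentration series. 20 uM Triacsin C defined 100% inhibition.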
% is scaled to controls: 0 for no effect and ±100 for the full control effect; potency is read from the fitted curve at half-maximal effect.

Lipid storage change, negative = inhibition, inactive:
CCOc1ccc(/C=C2\SC(=S)N(CCC(=O)Nc3ccc(C(=O)O)cc3)C2=O)cc1

Lipid storage change, negative = inhibition, inconclusive:
CCCCn1c(N)c(N(CC(C)C)C(=O)CSCC(=O)Nc2ccc(C)cc2)c(=O)[nH]c1=O 5.79%
Cc1ccc2cc(S(=O)(=O)NCCC(=O)O)ccc2c1 36.5%
CCc1cc(-c2nnc(SCC(=O)NC3CC3)n2C)cs1 -32.9%
Cc1ccc(N2C(=O)CC(N3CCN(C4CCc5ccccc5C4)CC3)C2=O)cc1 (stereo not given) -10.5%
Cc1cc(=S)[nH]c2c(C)cccc12 59.7%
Cc1cc2ccccn2c1C(=O)c1ccc(F)cc1 146%
CCOc1ccccc1NC(=O)N1CCCN(c2ncccc2C#N)CC1 13.6%
Cn1c(NC(=O)/C=C/c2ccccc2)cc(=O)n(C)c1=O 11.7%
CC(=O)NC(Cc1ccccc1)C(=O)NC1CCN(C(=O)NCc2ccccc2)CC1 (stereo not given) 10%
COc1ccc(-n2ncc3c2CC(C)(C)CC3NC(=O)C2=CC(=O)CC(C)(C)O2)cc1 (stereo not given) -26.4%
O=C1C2C3CCC(C3NCc3ccccc3)C2C(=O)N1Cc1ccccc1 (stereo not given) -22.6%
O=C(NCC(=O)N1CCN(C/C=C/c2ccccc2)CC1)c1ccc(OC(F)F)cc1 -77.8%
CC(=O)c1ccc(OCc2cc(C(=O)N3CCC(c4ccncc4)CC3)no2)cc1 -55.2%
CCOc1cc(C2C(C(C)=O)=C(C)Nc3ncnn32)ccc1O (stereo not given) 8.33%
COc1ccc(CNC(=O)C2CCC(CNc3nc(=S)[nH]c4ccccc34)CC2)cc1 (stereo not given) -52.7%
CC(=O)NC12CC3CC(C1)CC(C(=O)N1CCN(S(=O)(=O)c4ccc(Cl)s4)CC1)(C3)C2 -18%
COc1cc2c(cc1OC)CN(c1nc(CN3CCCC3)nc3sc(C)c(C)c13)CC2 -0.181%
O=C(CNC(=O)C1CCCCC1)OCC(=O)c1ccc(F)cc1 -18.6%
CS(=O)(=O)N1CCc2ccc(NC(=O)C3CCCO3)cc2C1 (stereo not given) 34.9%
O=C(N/N=C/c1cc([N+](=O)[O-])ccc1O)C(O)(c1ccccc1)c1ccccc1 9.97%
CCCc1ccc(OCc2nc(-c3ccc(NC(=O)c4cccs4)cc3)no2)cc1 8.08%
COc1ccccc1CNC(=O)c1cn(C)c2ccc(S(=O)(=O)N3CCCC3)cc2c1=O -5.08%
O=S(=O)(NC(=S)Nc1ccccc1)c1ccc(F)cc1 -11.3%
Cc1ccc(C(=O)c2c3ccccc3[n+]([O-])n2CCO)cc1 5.34%
COC(=O)C1=C(C)NC(=S)NC1c1sccc1C (stereo not given) -8.3%
Cc1c(Cl)cccc1NC(=S)N/N=C/c1ccccc1Cl -13.9%
COc1cccc(CNC(=O)c2ccc(Cl)c(S(=O)(=O)N3CCOCC3)c2)c1 2.96%
O=C(CSc1nnc(C2CC2)n1C1CC1)c1cc(F)ccc1F 32.4%
COCCn1c(SCC(=O)c2[nH]c(C)c(C(C)=O)c2C)nc2ccccc2c1=O -2.66%
Cn1c(=O)c2c(nc(CN3CCN(C(=O)c4ccco4)CC3)n2Cc2cccc(Cl)c2)n(C)c1=O -2.28%
COC(=O)C1=C(C)Nc2c(c(=O)n(C)c(=O)n2C)C1c1ccc(Cl)cc1 (stereo not given) -0.041%
Cc1ccc(S(=O)(=O)/N=C(/c2ccccc2)N2CCOCC2)c(C)c1 26.6% [at 9.22 µM]
O=C(NC1CCCC1)C(c1ccccc1F)N(C(=O)c1csnn1)c1ccccc1 (stereo not given) 42.2%
CC(C)(C)NC(=O)CCN(/N=C/c1ccncc1)C1=NS(=O)(=O)c2ccccc21 -33.7%
COC(=O)CNC(=O)CCc1nnc(C2(c3ccc(Cl)cc3)CCC2)o1 -1.21%
O=C(Nc1ccc(N2CCOCC2)c(Cl)c1)c1c(F)c(F)c(F)c(F)c1F -2.38%
CCOC(=O)C1CCN(Cc2cccc(Oc3ccccc3)c2)CC1 -22.2%
Nc1nc(-c2cccc(Br)c2)cs1 45.3%
N=C(N)n1c(N)nc2ccccc2c1=O -1.57%
Cc1ccccc1C(=O)NC(NC(=O)c1ccccc1C)c1cccc([N+](=O)[O-])c1 2.9%
COC(=O)CCC(=O)Nc1cccc(Br)c1 -36.6%
COCC(C)n1c(C)cc(C(=O)COC(=O)c2ccc(N3CCCC3=O)cc2)c1C (stereo not given) 23.4%
COc1ccc(NS(=O)(=O)c2cc(NC(=O)/C=C/c3ccccc3OC)ccc2N2CCCCC2)cc1 25%
CCOc1ccccc1-c1nnc(SCC(=O)NC2(C#N)CCCC2)o1 10.1%
O=C(NCC(=O)N1CCCCCC1)c1ccc(OC(F)F)cc1 -36.1%
CCc1ccc(NC(=S)NNC(=O)c2ccccc2OC(F)F)cc1 11.8%
O=C1CCC([N+](=O)[O-])C(c2cccc(Cl)c2Cl)N1 (stereo not given) 31.5%
CCCc1cc(=O)[nH]c2nnc(SCC(=O)Nc3ccc(NC(C)=O)cc3)n12 -8.53%
Cc1cccc(NC(=O)c2nc[nH]c2C(=O)N[C@@H](Cc2ccccc2)C(=O)OCc2ccccc2)c1 -43%
CC(Oc1ccc2ccccc2c1)C(=O)NNC(=S)NC(=O)c1ccco1 (stereo not given) 76.3%

Nothing new here: entries from further up.
Lipid storage change, negative = inhibition, inconclusive:
COc1ccc(CNC(=O)C2CCC(CNc3nc(=S)[nH]c4ccccc34)CC2)cc1 (stereo not given) -52.7%
CC(=O)NC12CC3CC(C1)CC(C(=O)N1CCN(S(=O)(=O)c4ccc(Cl)s4)CC1)(C3)C2 -18%
COc1cc2c(cc1OC)CN(c1nc(CN3CCCC3)nc3sc(C)c(C)c13)CC2 -0.181%
O=C(CNC(=O)C1CCCCC1)OCC(=O)c1ccc(F)cc1 -18.6%
CS(=O)(=O)N1CCc2ccc(NC(=O)C3CCCO3)cc2C1 (stereo not given) 34.9%
O=C(N/N=C/c1cc([N+](=O)[O-])ccc1O)C(O)(c1ccccc1)c1ccccc1 9.97%
CCCc1ccc(OCc2nc(-c3ccc(NC(=O)c4cccs4)cc3)no2)cc1 8.08%
COc1ccccc1CNC(=O)c1cn(C)c2ccc(S(=O)(=O)N3CCCC3)cc2c1=O -5.08%
O=S(=O)(NC(=S)Nc1ccccc1)c1ccc(F)cc1 -11.3%
Cc1ccc(C(=O)c2c3ccccc3[n+]([O-])n2CCO)cc1 5.34%
COC(=O)C1=C(C)NC(=S)NC1c1sccc1C (stereo not given) -8.3%
Cc1c(Cl)cccc1NC(=S)N/N=C/c1ccccc1Cl -13.9%
COc1cccc(CNC(=O)c2ccc(Cl)c(S(=O)(=O)N3CCOCC3)c2)c1 2.96%
O=C(CSc1nnc(C2CC2)n1C1CC1)c1cc(F)ccc1F 32.4%
COCCn1c(SCC(=O)c2[nH]c(C)c(C(C)=O)c2C)nc2ccccc2c1=O -2.66%
Cn1c(=O)c2c(nc(CN3CCN(C(=O)c4ccco4)CC3)n2Cc2cccc(Cl)c2)n(C)c1=O -2.28%
COC(=O)C1=C(C)Nc2c(c(=O)n(C)c(=O)n2C)C1c1ccc(Cl)cc1 (stereo not given) -0.041%
Cc1ccc(S(=O)(=O)/N=C(/c2ccccc2)N2CCOCC2)c(C)c1 26.6% [at 9.22 µM]
O=C(NC1CCCC1)C(c1ccccc1F)N(C(=O)c1csnn1)c1ccccc1 (stereo not given) 42.2%
CC(C)(C)NC(=O)CCN(/N=C/c1ccncc1)C1=NS(=O)(=O)c2ccccc21 -33.7%
COC(=O)CNC(=O)CCc1nnc(C2(c3ccc(Cl)cc3)CCC2)o1 -1.21%
O=C(Nc1ccc(N2CCOCC2)c(Cl)c1)c1c(F)c(F)c(F)c(F)c1F -2.38%

Following part.

Potency, inconclusive:
O=c1[nH]cnc2c1sc(=S)n2-c1ccccc1 6.51 µM [falling, single point]
COc1ccc2nc(NS(=O)(=O)c3ccc(NC(C)=O)cc3)sc2c1 29.1 µM [activator, single point]
O=C1CN(C(=O)c2ccccn2)c2ccccc2N1 23.1 µM [falling, single point]
CCOC(=O)C1CCCN(C(=O)c2ccc(OCC)cc2)C1 (stereo not given) 4.61 µM [falling, single point]
Cc1ccc(-c2csc(NC(=O)COC(=O)c3cccc(S(=O)(=O)N4CCOCC4)c3)n2)cc1 6.51 µM [falling, full curve, poor fit]
Cc1nc2ccccc2c2c1C(=O)NC2=O 2.59 µM [activator, single point]
O=c1[nH]c(CSc2nnc(-c3ccco3)n2-c2ccccc2)nc2sc3c(c12)CCC3 0.731 µM [activator, full curve]
CC1(C)CC(=O)C(N=Nc2cc(C(F)(F)F)ccc2Cl)=C(O)C1 0.0052 µM [falling, full curve, poor fit]
COc1ccc(C2C3=C(CC(C)(C)CC3=O)Oc3ncn(Cc4ccccc4)c(=N)c32)cc1 (stereo not given) 32.6 µM [rising, single point]
O=C(NCc1ccc2c(c1)OCO2)c1cccc([N+](=O)[O-])c1 0.0651 µM [activator, full curve, poor fit]
COc1ccc(Cl)cc1NC(=S)N1CCCCCC1 18.4 µM [falling, single point]
CC1(C)OC(=O)C(=CNCC(=O)NCC(=O)O)C(=O)O1 29.1 µM [falling, single point]
Cc1ccc(OCC(=O)Nc2cccc(C)n2)c(C)c1 32.6 µM [activator, single point]
O=C(CN1C(=O)S/C(=C\C=C\c2ccccc2)C1=O)Nc1cccc(O)c1 20.6 µM [falling, single point]
CCc1nnc(NC(=O)CSc2ncnc3c2oc2ccccc23)s1 1.16 µM [activator, partial curve]
Cc1nc(N(CCO)C2CCCCC2)c2nnn(Cc3ccccc3)c2n1 16.4 µM [falling, single point]
CCOC(=O)N1CCN(c2nc(C(F)(F)F)nc3c(C)cc(C)cc23)CC1 3.26 µM [activator, partial curve]
CCOc1ccc(CN2CCNC(=O)C2CC(=O)NCCc2nc(C)c3c(n2)CCC3)cc1 (stereo not given) 1.64 µM [activator, partial curve]
CCOC(=O)N1CCN(c2c(NCCN3CCN(c4ccccc4F)CC3)c(=O)c2=O)CC1 3.26 µM [falling, single point]
Cc1ccc(-c2nc(S(=O)(=O)c3ccc(C)cc3)c(N3CCOCC3)o2)cc1 5.17 µM [activator, single point]
S=c1[nH]nc(-c2ccco2)n1-c1ccc(Cl)cc1 3.26 µM [falling, single point]
CC(C)OCCCn1c(=N)c(C(N)=S)cc2c(=O)n3ccccc3nc21 3.26 µM [falling, full curve]
O=C(c1cccc([N+](=O)[O-])c1)N1CCN(c2ccc(Cl)cc2)CC1 29.1 µM [activator, single point]
CCOc1ccc(N(CC(=O)Nc2cc(Cl)ccc2C)S(C)(=O)=O)cc1 29.1 µM [falling, single point]

Reference: PubChem BioAssay AID2685 (National Center for Advancing Translational Sciences (NCATS), 2010)
